According to the supplement of paper PMC10849652:
The other results are listed elsewhere or left out.

Sequences of proteins named here, by UniProt entry; tags and fusion partners are left off. A change or cut given only in a name is not applied to a line headed by its entry.
UniProt P50395: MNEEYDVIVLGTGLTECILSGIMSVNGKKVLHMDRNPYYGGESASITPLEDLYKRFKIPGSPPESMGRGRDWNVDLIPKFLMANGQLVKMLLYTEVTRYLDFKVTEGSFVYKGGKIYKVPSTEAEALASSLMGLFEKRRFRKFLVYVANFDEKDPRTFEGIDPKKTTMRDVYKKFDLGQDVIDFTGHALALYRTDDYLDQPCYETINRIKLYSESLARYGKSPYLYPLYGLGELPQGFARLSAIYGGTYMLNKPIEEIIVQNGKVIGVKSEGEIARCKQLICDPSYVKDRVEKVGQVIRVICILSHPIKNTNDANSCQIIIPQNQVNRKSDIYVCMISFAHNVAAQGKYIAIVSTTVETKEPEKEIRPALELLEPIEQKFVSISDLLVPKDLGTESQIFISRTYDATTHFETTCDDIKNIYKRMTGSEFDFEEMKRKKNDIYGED
UniProt P51114, whole entry, looked up: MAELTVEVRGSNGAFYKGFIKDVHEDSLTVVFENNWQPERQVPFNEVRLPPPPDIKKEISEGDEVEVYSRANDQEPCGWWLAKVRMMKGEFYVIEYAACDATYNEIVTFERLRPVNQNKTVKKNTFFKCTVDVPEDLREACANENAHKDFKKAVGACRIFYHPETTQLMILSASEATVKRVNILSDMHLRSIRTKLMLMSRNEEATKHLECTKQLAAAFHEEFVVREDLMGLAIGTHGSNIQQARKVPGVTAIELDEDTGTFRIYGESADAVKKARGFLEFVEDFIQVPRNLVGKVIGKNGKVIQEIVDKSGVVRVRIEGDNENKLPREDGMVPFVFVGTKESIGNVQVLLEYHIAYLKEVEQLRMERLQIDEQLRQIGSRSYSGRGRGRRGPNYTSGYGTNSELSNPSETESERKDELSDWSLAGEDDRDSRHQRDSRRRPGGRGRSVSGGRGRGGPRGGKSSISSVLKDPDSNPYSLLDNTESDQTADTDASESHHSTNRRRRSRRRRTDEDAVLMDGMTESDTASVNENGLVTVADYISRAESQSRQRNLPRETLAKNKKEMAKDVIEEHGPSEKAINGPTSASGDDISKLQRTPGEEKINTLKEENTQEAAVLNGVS
UniProt A2VDF0: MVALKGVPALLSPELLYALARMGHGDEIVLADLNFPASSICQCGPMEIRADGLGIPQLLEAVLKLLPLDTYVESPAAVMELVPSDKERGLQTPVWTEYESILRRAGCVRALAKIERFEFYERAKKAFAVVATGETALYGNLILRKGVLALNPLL
UniProt Q96NB1: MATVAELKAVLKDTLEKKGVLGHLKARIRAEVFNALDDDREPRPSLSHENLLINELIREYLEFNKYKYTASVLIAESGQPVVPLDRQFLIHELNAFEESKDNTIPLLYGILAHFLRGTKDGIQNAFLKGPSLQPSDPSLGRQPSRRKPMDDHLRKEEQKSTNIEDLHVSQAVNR
UniProt O43716: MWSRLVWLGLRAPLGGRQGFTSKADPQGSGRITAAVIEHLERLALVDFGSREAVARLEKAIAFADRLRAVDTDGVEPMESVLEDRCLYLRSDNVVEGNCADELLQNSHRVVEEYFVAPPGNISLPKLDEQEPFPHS
UniProt Q96C23: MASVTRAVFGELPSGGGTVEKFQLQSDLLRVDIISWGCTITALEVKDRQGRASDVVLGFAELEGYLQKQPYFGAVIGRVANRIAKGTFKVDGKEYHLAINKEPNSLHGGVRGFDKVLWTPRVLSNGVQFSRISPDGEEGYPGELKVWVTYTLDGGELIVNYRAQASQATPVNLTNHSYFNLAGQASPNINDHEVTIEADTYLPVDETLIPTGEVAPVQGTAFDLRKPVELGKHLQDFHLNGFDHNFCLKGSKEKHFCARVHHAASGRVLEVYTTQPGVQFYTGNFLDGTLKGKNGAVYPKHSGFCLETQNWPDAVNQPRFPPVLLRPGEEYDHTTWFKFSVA
UniProt P36268: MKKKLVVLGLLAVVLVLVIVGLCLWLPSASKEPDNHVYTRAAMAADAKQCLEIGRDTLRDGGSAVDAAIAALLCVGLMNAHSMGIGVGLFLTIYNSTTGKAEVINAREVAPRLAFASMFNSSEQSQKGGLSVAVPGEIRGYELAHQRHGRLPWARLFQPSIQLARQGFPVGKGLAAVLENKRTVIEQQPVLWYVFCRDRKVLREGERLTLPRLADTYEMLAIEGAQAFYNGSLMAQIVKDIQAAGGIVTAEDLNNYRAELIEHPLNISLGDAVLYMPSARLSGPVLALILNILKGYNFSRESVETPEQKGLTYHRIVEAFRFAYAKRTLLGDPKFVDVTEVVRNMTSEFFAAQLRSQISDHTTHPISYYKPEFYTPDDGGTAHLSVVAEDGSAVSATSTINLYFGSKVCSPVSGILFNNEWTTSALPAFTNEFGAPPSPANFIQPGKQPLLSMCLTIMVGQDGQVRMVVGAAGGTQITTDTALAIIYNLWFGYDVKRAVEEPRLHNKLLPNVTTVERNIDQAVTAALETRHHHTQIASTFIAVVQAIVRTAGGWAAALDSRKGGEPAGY
UniProt Q9HCG7: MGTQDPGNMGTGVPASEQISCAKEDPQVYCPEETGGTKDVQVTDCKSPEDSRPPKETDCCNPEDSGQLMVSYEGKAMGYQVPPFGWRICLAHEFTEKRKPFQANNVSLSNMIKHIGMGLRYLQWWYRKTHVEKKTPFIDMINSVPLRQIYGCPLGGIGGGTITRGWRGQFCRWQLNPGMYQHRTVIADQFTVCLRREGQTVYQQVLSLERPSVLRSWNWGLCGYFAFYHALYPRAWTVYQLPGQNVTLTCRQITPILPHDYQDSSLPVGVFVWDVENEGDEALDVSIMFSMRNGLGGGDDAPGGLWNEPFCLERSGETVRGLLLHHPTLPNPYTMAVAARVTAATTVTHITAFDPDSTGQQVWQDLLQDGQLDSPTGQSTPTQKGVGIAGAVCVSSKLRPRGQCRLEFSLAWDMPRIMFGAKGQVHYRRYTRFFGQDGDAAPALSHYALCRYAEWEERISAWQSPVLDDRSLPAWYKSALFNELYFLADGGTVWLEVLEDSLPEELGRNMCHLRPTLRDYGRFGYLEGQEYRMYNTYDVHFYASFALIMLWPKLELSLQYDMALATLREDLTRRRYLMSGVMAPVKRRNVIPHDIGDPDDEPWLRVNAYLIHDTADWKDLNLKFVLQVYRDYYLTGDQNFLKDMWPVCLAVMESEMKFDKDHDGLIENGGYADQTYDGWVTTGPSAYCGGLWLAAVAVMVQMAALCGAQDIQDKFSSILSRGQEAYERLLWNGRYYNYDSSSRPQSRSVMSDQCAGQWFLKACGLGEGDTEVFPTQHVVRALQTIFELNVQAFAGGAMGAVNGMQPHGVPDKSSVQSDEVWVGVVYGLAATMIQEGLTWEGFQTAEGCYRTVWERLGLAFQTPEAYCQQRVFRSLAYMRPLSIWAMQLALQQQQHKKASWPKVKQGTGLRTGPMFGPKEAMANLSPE
UniProt Q6ZNA5: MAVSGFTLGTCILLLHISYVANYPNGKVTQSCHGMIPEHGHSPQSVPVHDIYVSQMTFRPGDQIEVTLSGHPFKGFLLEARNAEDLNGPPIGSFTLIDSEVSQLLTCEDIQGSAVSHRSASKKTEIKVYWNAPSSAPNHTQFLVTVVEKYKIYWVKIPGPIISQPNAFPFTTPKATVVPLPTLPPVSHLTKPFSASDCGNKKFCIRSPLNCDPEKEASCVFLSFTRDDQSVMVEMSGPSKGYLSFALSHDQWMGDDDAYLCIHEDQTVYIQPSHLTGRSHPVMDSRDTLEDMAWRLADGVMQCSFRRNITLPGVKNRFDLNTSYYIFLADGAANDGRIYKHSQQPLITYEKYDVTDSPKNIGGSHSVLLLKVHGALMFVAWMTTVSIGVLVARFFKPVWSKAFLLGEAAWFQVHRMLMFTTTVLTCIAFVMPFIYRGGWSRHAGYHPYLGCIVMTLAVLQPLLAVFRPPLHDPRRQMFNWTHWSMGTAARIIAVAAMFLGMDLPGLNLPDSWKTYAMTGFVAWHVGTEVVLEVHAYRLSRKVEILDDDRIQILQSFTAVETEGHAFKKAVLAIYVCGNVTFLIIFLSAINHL

Assays:
Experiment in all cases: log2 fold change, soluble protein after heating vs DMSO (PISA); higher = thermal stabilisation; K562 cells, 10 uM, 30 min; active = over 0.2 and 3.5 SD of the protein, either way, in both replicates (recomputed)
[1] = compound: C1=CC=C(C=C1)[C@H](COC2=CC3=C(C=C2)NC(=O)N3)NC(=O)C4=CC=CN(C4=O)CC5=CC(=C(C=C5)F)F
Procedure, shortened: (§1)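 Aliquots of K562 cells (2×10^6 cells/mL) treated with 10 μM compound for 30 min were heated for 3 min over 48°C-58°C. After pooling and extraction in PBS with 0.5% NP-40 at 4°C, soluble protein from a 21,000xg, 90 min spin was quantified by TMTpro 16plex LC-MS/MS with channel sums equalised. Thermal stability is expressed against control samples, from duplicates, as a log2 fold change.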

[2] = compound: CC1=C(SC2=C1C(=N[C@H](C3=NN=C(N32)C)CC(=O)N)C4=CC=C(C=C4)Cl)C
Procedure, shortened: as §1

[3] = compound: CC1=C2C(=CC=C1)N=C(N(C2=O)C3=CC=CC=C3C)CN4C=NC5=C(N=CN=C54)N
Procedure, shortened: as §1

[4] = compound: Cc1sc2c(c1C)C(c1ccc(Cl)cc1)=N[C@@H](CC(=O)OC(C)(C)C)c1nnc(C)n1-2
Procedure, shortened: as §1

[5] = compound: c1ccc([C@@H]2C[C@H]2NC2CCNCC2)cc1
Procedure, shortened: as §1

Measured: log2 fold change

GDI2 (UniProt P50395)
inactive: [1] -0.039 | [2] 0.029 | [3] 0.013 | [4] -0.029 | [5] -0.035

FXR1 (UniProt P51114)
inactive: [1] 0.022 | [2] -0.218 | [3] -0.05 | [4] 0.207 | [5] 0

FUOM (UniProt A2VDF0)
inactive: [1] 0.043 | [2] 0.099 | [3] -0.088 | [4] -0.273 | [5] -0.076

Quoted at random: 2 records from the list.
FUOM (UniProt A2VDF0)
inactive: [1] 0.043 | [2] 0.099 | [3] -0.088 | [4] -0.273 | [5] -0.076

GDI2 (UniProt P50395)
inactive: [1] -0.039 | [2] 0.029 | [3] 0.013 | [4] -0.029 | [5] -0.035

Next part

FOPNL (UniProt Q96NB1)
inactive: [1] 0.081 | [2] 0.105 | [3] 0.054 | [4] -0.02 | [5] 0.139

GATC (UniProt O43716)
inactive: [1] 0.032 | [2] 0.046 | [3] 0.03 | [4] -0.088 | [5] -0.009

GALM (UniProt Q96C23)
inactive: [1] 0.051 | [2] 0.076 | [3] 0.062 | [4] -0.026 | [5] -0.029

GGT2 isoform 3 (UniProt P36268)
inactive: [1] 0.015 | [2] -0.002 | [3] 0.021 | [4] 0.107 | [5] 0.076

GBA2 (UniProt Q9HCG7)
inactive: [1] 0.099 | [2] 0.012 | [3] 0.017 | [4] 0.034 | [5] 0.023

FRRS1 (UniProt Q6ZNA5)
inactive: [1] -0.016 | [2] 0.007 | [3] 0.007 | [4] 0.008 | [5] 0.015
